Measured data: PubChem BioAssay AID1259424 (University of Nebraska Medical Center, 2018)
In all, the deposit lists about 14,000 reagents; shown is a part drawn at random. 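Higher correlation or smaller distance means closer resemblance to KSR1 loss; control wells, including KSR1 knockdowns, recur on many plates.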 The record does not give: the time to read-out.

- Screen: 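Seek colon cancer survival genes behaving like KSR1, using a six-gene signature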 (primary screen)
- Cell system: human HCT116 colon cancer cells
- Knock-down reagent: siRNA pool against human genes, 50 nM
- Read-out: 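Log2 levels of six mRNAs (branched-DNA multiplex), adjusted by two reference genes and the non-targeting median, then scored against the average KSR1 knockdown pattern as Pearson r and euclidean distance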
- Reading the numbers: mean correlation with KSR1 profile and KSR1 correlation: higher = expression change more like KSR1 knockdown; mean distance from KSR1 profile: higher = expression change less like KSR1 knockdown

The first 4 records as a preview:
no.	target	mean correlation with KSR1 profile	mean distance from KSR1 profile	KSR1 correlation, replicate 1	KSR1 correlation, replicate 2	KSR1 correlation, replicate 3
1	NDUFAF4 (NADH:ubiquinone oxidoreductase complex assembly factor 4)	0.75	0.985	0.684	0.217	0.72
2	DEFB4A (defensin beta 4A)	0.76	1.44	0.677	0.816	0.709
3	MAPK8IP1 (mitogen-activated protein kinase 8 interacting protein 1)	-0.15	2.54	0.223	-0.0481	-0.557
4	USP26 (ubiquitin specific peptidase 26)	-0.183	1.73	0.0185	-0.343	-0.307

The listing, repeating the preview:
no.	target	mean correlation with KSR1 profile	mean distance from KSR1 profile	KSR1 correlation, replicate 1	KSR1 correlation, replicate 2	KSR1 correlation, replicate 3
1	NDUFAF4 (NADH:ubiquinone oxidoreductase complex assembly factor 4)	0.75	0.985	0.684	0.217	0.72
2	DEFB4A (defensin beta 4A)	0.76	1.44	0.677	0.816	0.709
3	MAPK8IP1 (mitogen-activated protein kinase 8 interacting protein 1)	-0.15	2.54	0.223	-0.0481	-0.557
4	USP26 (ubiquitin specific peptidase 26)	-0.183	1.73	0.0185	-0.343	-0.307
5	GSTT1 (glutathione S-transferase theta 1)	-0.459	2.59	-0.404	-0.454	-0.543
6	PLOD3 (procollagen-lysine,2-oxoglutarate 5-dioxygenase 3)	-0.434	5.31	-0.352	-0.454	-0.342
7	ITGB2 (integrin subunit beta 2)	-0.551	1.41	-0.579	-0.0632	-0.418
8	HBB (hemoglobin subunit beta)	0.00316	2.59	0.118	-0.104	-0.00717
9	MC3R (melanocortin 3 receptor)	-0.22	2.76	-0.204	-0.281	0.0205
10	ACSM3 (acyl-CoA synthetase medium chain family member 3)	0.38	2.57	0.325	0.36	0.34
11	MMAA (metabolism of cobalamin associated A)	0.804	1.14	0.821	0.717	0.751
12	ST8SIA4 (ST8 alpha-N-acetyl-neuraminide alpha-2,8-sialyltransferase 4)	-0.431	1.86	-0.417	-0.436	-0.46
13	TSGA10 (testis specific 10)	0.53	1.66	0.367	0.512	0.521
14	TMLHE (trimethyllysine hydroxylase, epsilon)	-0.355	2.7	-0.151	-0.443	-0.492
15	PCDHB7 (protocadherin beta 7)	-0.225	2.03	-0.298	-0.466	-0.0382
16	IRF4 (interferon regulatory factor 4)	0.191	2.67	0.303	0.425	0.0936
17	TENM3 (teneurin transmembrane protein 3)	-0.393	2.43	-0.574	-0.561	-0.403
18	PTPN3 (protein tyrosine phosphatase non-receptor type 3)	-0.465	1.46	-0.0685	-0.645	-0.46
19	LMTK2 (lemur tail kinase 2)	0.217	1.6	0.394	-0.00112	0.302
20	AGL (amylo-alpha-1,6-glucosidase and 4-alpha-glucanotransferase)	-0.483	1.9	-0.512	-0.575	-0.302
21	INE1 (inactivation escape 1)	-0.202	1.74	0.114	-0.377	-0.503
22	FLOT2 (flotillin 2)	-0.52	2.89	-0.542	-0.365	-0.602
23	MYOG (myogenin)	0.435	1.44	0.598	0.657	-0.304
24	MECP2 (methyl-CpG binding protein 2)	-0.214	2.77	-0.0408	-0.231	-0.211
25	EIF3G (eukaryotic translation initiation factor 3 subunit G)	-0.45	2.65	0.02	0.0577	0.17
26	PSMD5 (proteasome 26S subunit, non-ATPase 5)	-0.226	2.44	-0.324	-0.145	-0.233
27	DCSTAMP (dendrocyte expressed seven transmembrane protein)	0.67	1.63	0.594	0.702	0.553
28	ZXDA (zinc finger X-linked duplicated A)	-0.582	4.37	-0.612	-0.566	-0.518
29	CIAO2A (cytosolic iron-sulfur assembly component 2A)	0.586	1.22	0.552	0.602	-0.2
30	SNN (stannin)	-0.46	2.73	-0.606	-0.486	-0.179
31	PRO2964 (retired record)	-0.497	2.04	-0.45	-0.61	-0.316
32	COLGALT2 (collagen beta(1-O)galactosyltransferase 2)	-0.52	2.89	-0.462	-0.523	-0.527
33	KIR3DL1	0.0895	1.65	0.0658	-0.0564	0.0787
34	KIF12 (kinesin family member 12)	0.107	3.56	0.0922	0.0933	0.0511
35	PTH2R (parathyroid hormone 2 receptor)	0.636	2.13	0.739	0.712	0.552
36	CALD1 (caldesmon 1)	-0.0286	1.59	0.13	-0.249	-0.157
37	OR5V1 (olfactory receptor family 5 subfamily V member 1)	0.811	2.9	0.764	0.865	0.786
38	MUC5B (mucin 5B, oligomeric mucus/gel-forming)	0.597	2.04	0.714	0.316	0.72
39	ATAD2B (ATPase family AAA domain containing 2B)	-0.372	1.47	-0.382	-0.411	-0.526
40	LONRF3 (LON peptidase N-terminal domain and ring finger 3)	0.0549	1.68	0.171	0.207	-0.0583
41	WNT9B (Wnt family member 9B)	-0.43	1.51	-0.595	-0.185	-0.452
42	IRF5 (interferon regulatory factor 5)	0.0335	1.37	0.524	0.3	0.101
43	TMEM35A (transmembrane protein 35A)	-0.319	4.92	-0.302	-0.423	-0.38
44	FAM107A (family with sequence similarity 107 member A)	-0.751	2.11	-0.437	-0.762	-0.825
45	METTL1 (methyltransferase 1, tRNA methylguanosine)	-0.583	6	-0.599	-0.594	-0.567
46	NTHL1 (nth like DNA glycosylase 1)	-0.587	2.4	-0.667	-0.402	-0.511
47	TMEM126A (transmembrane protein 126A)	0.828	1.8	0.72	0.667	0.873
48	CPAP (centrosome assembly and centriole elongation protein)	-0.699	3.98	-0.708	-0.619	-0.753
49	RBM45 (RNA binding motif protein 45)	-0.675	2.97	-0.674	-0.709	-0.677
50	NCOA1 (nuclear receptor coactivator 1)	-0.136	2.24	-0.0593	-0.0635	-0.38
